The target in data set [1] is RAD52 (hRAD52) (human) (UniProt P43351). Description: EMSA. The settings on record: weaker than the m5C hybrid N2, 1 mM Mg2+, source data at top RAD52 level (360, unit not shown): 79.8 and 86.1; EMSA: 25 mM Tris-HCl pH 7.5, 1 mM MgCl2, 1 mM DTT, 50 ug/mL BSA, 50 or 300 mM NaCl and/or 0.5% NP-40, 15 min 37 C, 6% PAGE-TBE at 4 C; recombinant protein; protein details: C-terminal 6xHis (pET28b); label: 5' maleimide-IR800 on oligo 1 (DNA); DNA:RNA hybrid.

Sequences of proteins named here, by UniProt entry; tags and fusion partners are left off. A change or cut given only in a name is not applied to a line headed by its entry.
UniProt P43351: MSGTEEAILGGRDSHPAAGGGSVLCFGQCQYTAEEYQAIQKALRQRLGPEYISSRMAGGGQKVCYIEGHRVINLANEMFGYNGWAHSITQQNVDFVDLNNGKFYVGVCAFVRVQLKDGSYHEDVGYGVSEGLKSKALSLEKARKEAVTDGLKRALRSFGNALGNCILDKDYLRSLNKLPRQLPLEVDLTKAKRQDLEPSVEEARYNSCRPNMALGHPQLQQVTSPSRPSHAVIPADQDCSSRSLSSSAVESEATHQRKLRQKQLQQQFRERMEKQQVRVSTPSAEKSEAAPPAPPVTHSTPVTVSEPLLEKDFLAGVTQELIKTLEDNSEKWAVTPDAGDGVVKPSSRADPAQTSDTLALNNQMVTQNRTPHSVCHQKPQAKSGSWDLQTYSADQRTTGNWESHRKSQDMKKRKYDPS

The target in data set [2] is RAD52 in cell lysate (UniProt P43351). Briefly: pull-down. The settings on record: pull-down: Pierce magnetic RNA-protein pull-down kit, protein in an extract, label: 3'-biotin on RNA, DNA:RNA hybrid, letters put together from the description.
In data set [3] the target is T1, His-TRDMT1 (human) (UniProt O14717).
T1 sequence (looked up, limits assumed): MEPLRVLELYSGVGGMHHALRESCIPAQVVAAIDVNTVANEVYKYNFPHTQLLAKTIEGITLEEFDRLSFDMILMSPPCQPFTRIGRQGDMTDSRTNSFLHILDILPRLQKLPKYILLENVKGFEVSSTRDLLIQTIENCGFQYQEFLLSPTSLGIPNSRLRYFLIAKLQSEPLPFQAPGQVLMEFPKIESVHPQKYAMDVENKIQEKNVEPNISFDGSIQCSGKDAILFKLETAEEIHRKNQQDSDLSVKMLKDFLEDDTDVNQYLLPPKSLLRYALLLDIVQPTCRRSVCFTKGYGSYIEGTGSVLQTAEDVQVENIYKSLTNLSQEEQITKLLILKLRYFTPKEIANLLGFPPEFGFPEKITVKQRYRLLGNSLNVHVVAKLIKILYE
Briefly: pull-down. The settings on record: pull-down: Pierce magnetic RNA-protein pull-down kit; recombinant protein; protein details: His; label: 3'-biotin on RNA; DNA:RNA hybrid; letters put together from the description.

The exact form of at least one protein or probe is not confirmed. For some of these results: A weaker result is weaker than the reference pair of the same experiment. For some of these results: Results from cells or extracts need not show a direct contact. For some of these results: At least one verdict rests on a figure or table, not on a statement of the authors. For some of these results: Tags and fusion partners may be left off the protein sequences shown.

For the sequence “ATCATCACCATAACGTCGATGTATCAACTTCGATTAGTCACACCAATTAA / UUAAUUGGUGUGACUAAUCGAAGUUGAUACAUCGACGUUAUGGUGAUGAU [50-bp DNA:RNA hybrid (oligo 1/oligo 2)]”, the binding result in data set [1] is given as “binds more weakly”.
Take “UGACUAAUCGAAGUUGAUACAUCGACGUUA / TAACGTCGATGTATCAACTTCGATTAGTCA [30-bp DNA:RNA hybrid]”: the binding result in data set [2] (less efficient capture than m5C hybrid N4, wash with additional 300 mM NaCl and 0.5% NP-40) is recorded as “binds more weakly”; in data set [3] it was “binds”.
Turning to “UGACUAAUCGAAGUUGAUACAUCGACGUUA / TAACGTCGATGTATCAACTTCGATTAGTCA [30-bp m5C DNA:RNA hybrid]”, the binding result in data set [2] (more efficient capture than unmodified N3, wash with additional 300 mM NaCl and 0.5% NP-40, m5C at all five C of the RNA strand (positions 4, 9, 20, 23, 26)) is given as “binds”.
